Data on 17 sequences can be found in the supplement of paper PMC10338343.

± gives the standard deviation. This is a selection; strong and weak results do not stand in their true shares. The uncertainty is large for many entries.

Test [1] deals with MILI (PIWIL2) piRISC loaded with L1MC piRNA (26 nt). The test is described as follows: pre-steady-state target cleavage rate (min^-1); MIWI and MILI are mouse PIWI proteins and EfPiwi is from a freshwater sponge; tags in brackets are library labels; higher = faster piRNA-guided slicing of the target. The following applies: guide: L1MC piRNA 5'p-UAACUAAAUACUAUGCAAGCUGUAGG
The method, boiled down: (§1)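 Cleave-'n-Seq: 1 nM active affinity-purified piRISC with one synthetic guide and 0.1 nM transcribed, DNA-blocked target RNA library were mixed, with or without 500 nM GTSF1 partner protein, in HEPES–potassium acetate buffer at 33 °C for 0–8 or 0–960 min. Uncleaved targets were sequenced and normalised to depth and to weakly complementary targets, three trials were pooled, and k3 was capped at 0.0001 min^-1. The pre-steady-state cleavage rate was fitted […].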

For test [2], the system named is MIWI (PIWIL1) piRISC loaded with L1MC piRNA (30 nt). The test is described as above. The following applies: guide: L1MC piRNA 5'p-UAACUAAAUACUAUGCAAGCUGUAGGUCCU
The method, boiled down: as §1

Setting [3] is: auxiliary factor: 500 nM mouse GTSF1.
Where [4] appears, read: auxiliary factor: none (no GTSF1).

Consider UCCUGGAUGUCGAACGUUGGUAUUUAGUUA, for which the results for the “pre-steady-state target cleavage rate” value in test [1] (setting [3]), in test [1] (setting [4]) and in test [2] (setting [4]) were 0.000217 ± 0.038, 0.000374 ± 0.013 and 0.000266 ± 0.018, respectively.
As for UCCUGGAUGUGGUUGCAAAGUAUUUAGUUA, the figures for the “pre-steady-state target cleavage rate” value in test [1] (setting [3]), in test [1] (setting [4]) and in test [2] (setting [4]) were 0.0262 ± 0.0077, 0.00983 ± 0.0026 and 0.00333 ± 0.0034, respectively.
For UCCUGGAUGUGCUUGCAUAGUUUAUAGUUA, in that order: 0.00502 ± 0.0041, 0.00269 ± 0.0032 and 0.00289 ± 0.0033.
For UCCUGGAUGUCGAACGUAUGUUUUUAGUUA, the “pre-steady-state target cleavage rate” value was determined as 0.000369 ± 0.021 in test [1] (setting [3]), 0.000191 ± 0.024 in test [1] (setting [4]), 0.000364 ± 0.015 in test [2] (setting [3]) and 0.000278 ± 0.017 in test [2] (setting [4]).
UCCUGGAUGUGGAAGCAUAGUAUUUAGUUA: the “pre-steady-state target cleavage rate” value turned out to be 0.026 ± 0.0048 in test [1] (setting [3]), 0.00344 ± 0.0029 in test [1] (setting [4]) and 0.00052 ± 0.0067 in test [2] (setting [4]).
As to UCCUCCUACAGCUUGCUUAGUAUUUACAAA, the results for the “pre-steady-state target cleavage rate” value in test [1] (setting [3]), in test [1] (setting [4]) and in test [2] (setting [4]) were 0.0922 ± 0.021, 0.00136 ± 0.0034 and 0.00156 ± 0.0039, respectively.
For the sequence UCCUGGAUGUCCUUGCAUAGUUUUAGUUA, the “pre-steady-state target cleavage rate” value in test [1] (setting [3]) worked out at 0.00136 ± 0.0095; in test [1] (setting [4]), 0.000814 ± 0.0055; in test [2] (setting [3]), 0.00196 ± 0.0071; in test [2] (setting [4]), 0.00218 ± 0.0026.
Regarding UCCUCCUACAGCUUGCAAUAGUAUUUAGUUA, the “pre-steady-state target cleavage rate” value in test [1] (setting [3]) is 0.0415 ± 0.01; in test [1] (setting [4]) it was 0.00198 ± 0.0034; in test [2] (setting [4]), 0.00117 ± 0.0059.
For UCCUGGUACAGCUUGCAUAGUAAAUUCAAA, in that order: 0.0147 ± 0.0074, 0.00228 ± 0.0038 and 0.00109 ± 0.0053.
For UCCUGGAUGUGCUUCCAUAGUUUUUAGUUA, the “pre-steady-state target cleavage rate” value in test [1] (setting [3]) worked out at 0.00233 ± 0.0057; in test [1] (setting [4]), 0.000573 ± 0.012; in test [2] (setting [3]), 0.00272 ± 0.0053; in test [2] (setting [4]), 0.000511 ± 0.015.
UCCUGGAACACCAUGCAUAGUAUUUAGUUA: the “pre-steady-state target cleavage rate” value in test [1] (setting [3]) is 0.163 ± 0.018; in test [1] (setting [4]), 0.0028 ± 0.0033; in test [2] (setting [4]) it was 0.00266 ± 0.0033.
For the sequence UCCUGGAUGUCGAACCAUAGUGAUUUAGUUA, the “pre-steady-state target cleavage rate” value in test [1] (setting [3]) was determined as 0.000104 ± 0.025; in test [1] (setting [4]), 0.000239 ± 0.017; in test [2] (setting [4]), 0.000456 ± 0.014.
Take UCCUGGUACAGCUUGCAUAGAUAUUAGUAA: the “pre-steady-state target cleavage rate” value in test [1] (setting [3]) amounted to 0.00377 ± 0.0041; in test [1] (setting [4]) it was 0.00133 ± 0.0049; in test [2] (setting [4]), 0.000918 ± 0.0062.
As for UCCUGGAUGUCGAACCAUGGUAUUUAGUUA, the “pre-steady-state target cleavage rate” value in test [1] (setting [3]) is 0.00112 ± 0.0065; in test [1] (setting [4]), 0.000668 ± 0.0074; in test [2] (setting [3]) it was 0.000264 ± 0.0093.
Consider UCCUGGAUGUCGAUGCAUAGUAUUUAUGUUA, for which the “pre-steady-state target cleavage rate” value is 0.106 ± 0.022 in test [1] (setting [3]), 0.00134 ± 0.0053 in test [1] (setting [4]), 0.00358 ± 0.0038 in test [2] (setting [3]) and 0.000433 ± 0.017 in test [2] (setting [4]).
UCCUCCUACUCCUUGCAUAGUAUUUUCAAA: the “pre-steady-state target cleavage rate” value turned out to be 0.0534 ± 0.015 in test [1] (setting [3]), 0.0011 ± 0.0037 in test [1] (setting [4]) and 0.00144 ± 0.0023 in test [2] (setting [4]).
As for UCCUGCUACAGCUAGCAUAGUAUUUAGAUA, the “pre-steady-state target cleavage rate” value in test [1] (setting [3]) is 0.151 ± 0.028; in test [1] (setting [4]), 0.00126 ± 0.0066; in test [2] (setting [4]), 0.00266 ± 0.0028.
